The source of these data is patent publication US20230211344.

The subject of data set [1] is IgE kappa (clone AbD18705_IgE). The data set is described as follows: binding assay. As to conditions: micro free-flow electrophoresis with single-molecule confocal counting; 40 nM IgE + 50 pM aptamer gave about 21.7 pM complex (20.5 pM also stated); 10 mM HEPES pH 7.4; purified recombinant protein; protein details: Bio-Rad, clone AbD18705_IgE; label: 5'-Atto488; single-stranded DNA; cited from earlier work.

Data set [2] addresses alpha-synuclein (fibrils) (UniProt P37840). The data set is described as follows: binding assay. The conditions noted are these: purified recombinant protein, single-stranded DNA.

The exact form of at least one protein or probe is not confirmed. For part of these data: The comparison behind a weaker result is the experiment's own reference, which may not be listed here.

“TGGGGCACGTTTATCCGTCCCTCCTAGTGGCGTGCCCC [IgE aptamer probe]”: in data set [1], the binding result was “binds”. Take “TTTTGCCTGTGGTGTTGGGGCGGGTGCG [alpha-synuclein aptamer probe]”: the binding result in data set [2] (CITED Tsukakoshi et al. 2012, approximate Kd for fibrillar form) is “binds more weakly”; in data set [2] (micro free-flow electrophoresis at 80 V with single-molecule counting, 10 nM aptamer, bound probe 18.7 +/- 2.3 pM, fibril binding sites 1.0-1.9 nM assuming literature Kd), “binds”.
